{"source": "patent US20250283129A1", "about": "“PROCESS” (Sun Pharmaceutical Industries Australia Pty Limited, priority 2021, published 2025)", "molecules": {"B1": {"name": "E259K: endogenous CODM variant with amino acid substitution E259K (protein, listed as Papaver somniferum)", "chain": "METPILIKLGNGLSIPSVQELAKLTLAEIPSRYTCTGESPLNNIGASVTDDETVPVIDLQNLLSPEPVVGKLELDKLHSACKEWGFFQLVNHGVDALLMDNIKSEIKGFFNLPMNEKTKYGQQDGDFEGFGQPYIESEDQRLDWTEVFSMLSLPLHLRKPHLFPELPLPFRETLESYLSKMKKLSTVVFEMLEKSLQLVEIKGMTDLFEDGLQTMRMNYYPPCPRPELVLGLTSHSDFSGLTILLQLNEVEGLQIRKEKRWISIKPLPDAFIVNVGDILEIMTNGIYRSVEHRAVVNSTKERLSIATFHDSKLESEIGPISSLVTPETPALFKRGRYEDILKENLSRKLDGKSFLDYMRM"}, "B2": {"name": "E259H: codeine 3-O-demethylase with amino acid substitution E259H (protein, listed as Papaver somniferum)", "chain": "METPILIKLGNGLSIPSVQELAKLTLAEIPSRYTCTGESPLNNIGASVTDDETVPVIDLQNLLSPEPVVGKLELDKLHSACKEWGFFQLVNHGVDALLMDNIKSEIKGFFNLPMNEKTKYGQQDGDFEGFGQPYIESEDQRLDWTEVFSMLSLPLHLRKPHLFPELPLPFRETLESYLSKMKKLSTVVFEMLEKSLQLVEIKGMTDLFEDGLQTMRMNYYPPCPRPELVLGLTSHSDFSGLTILLQLNEVEGLQIRKEHRWISIKPLPDAFIVNVGDILEIMTNGIYRSVEHRAVVNSTKERLSIATFHDSKLESEIGPISSLVTPETPALFKRGRYEDILKENLSRKLDGKSFLDYMRM"}, "B3": {"name": "E259Q: codeine 3-O-demethylase with amino acid substitution E259Q (protein, listed as Papaver somniferum)", "chain": "METPILIKLGNGLSIPSVQELAKLTLAEIPSRYTCTGESPLNNIGASVTDDETVPVIDLQNLLSPEPVVGKLELDKLHSACKEWGFFQLVNHGVDALLMDNIKSEIKGFFNLPMNEKTKYGQQDGDFEGFGQPYIESEDQRLDWTEVFSMLSLPLHLRKPHLFPELPLPFRETLESYLSKMKKLSTVVFEMLEKSLQLVEIKGMTDLFEDGLQTMRMNYYPPCPRPELVLGLTSHSDFSGLTILLQLNEVEGLQIRKEQRWISIKPLPDAFIVNVGDILEIMTNGIYRSVEHRAVVNSTKERLSIATFHDSKLESEIGPISSLVTPETPALFKRGRYEDILKENLSRKLDGKSFLDYMRM"}, "B4": {"name": "E259A: codeine 3-O-demethylase with amino acid substitution E259A (protein, listed as Papaver somniferum)", "chain": "METPILIKLGNGLSIPSVQELAKLTLAEIPSRYTCTGESPLNNIGASVTDDETVPVIDLQNLLSPEPVVGKLELDKLHSACKEWGFFQLVNHGVDALLMDNIKSEIKGFFNLPMNEKTKYGQQDGDFEGFGQPYIESEDQRLDWTEVFSMLSLPLHLRKPHLFPELPLPFRETLESYLSKMKKLSTVVFEMLEKSLQLVEIKGMTDLFEDGLQTMRMNYYPPCPRPELVLGLTSHSDFSGLTILLQLNEVEGLQIRKEARWISIKPLPDAFIVNVGDILEIMTNGIYRSVEHRAVVNSTKERLSIATFHDSKLESEIGPISSLVTPETPALFKRGRYEDILKENLSRKLDGKSFLDYMRM"}, "B5": {"name": "E259S: codeine 3-O-demethylase with amino acid substitution E259S (protein, listed as Papaver somniferum)", "chain": "METPILIKLGNGLSIPSVQELAKLTLAEIPSRYTCTGESPLNNIGASVTDDETVPVIDLQNLLSPEPVVGKLELDKLHSACKEWGFFQLVNHGVDALLMDNIKSEIKGFFNLPMNEKTKYGQQDGDFEGFGQPYIESEDQRLDWTEVFSMLSLPLHLRKPHLFPELPLPFRETLESYLSKMKKLSTVVFEMLEKSLQLVEIKGMTDLFEDGLQTMRMNYYPPCPRPELVLGLTSHSDFSGLTILLQLNEVEGLQIRKESRWISIKPLPDAFIVNVGDILEIMTNGIYRSVEHRAVVNSTKERLSIATFHDSKLESEIGPISSLVTPETPALFKRGRYEDILKENLSRKLDGKSFLDYMRM"}, "B6": {"name": "R260T: codeine 3-O-demethylase with amino acid substitution R260T (protein, listed as Papaver somniferum)", "chain": "METPILIKLGNGLSIPSVQELAKLTLAEIPSRYTCTGESPLNNIGASVTDDETVPVIDLQNLLSPEPVVGKLELDKLHSACKEWGFFQLVNHGVDALLMDNIKSEIKGFFNLPMNEKTKYGQQDGDFEGFGQPYIESEDQRLDWTEVFSMLSLPLHLRKPHLFPELPLPFRETLESYLSKMKKLSTVVFEMLEKSLQLVEIKGMTDLFEDGLQTMRMNYYPPCPRPELVLGLTSHSDFSGLTILLQLNEVEGLQIRKEETWISIKPLPDAFIVNVGDILEIMTNGIYRSVEHRAVVNSTKERLSIATFHDSKLESEIGPISSLVTPETPALFKRGRYEDILKENLSRKLDGKSFLDYMRM"}, "B7": {"name": "E259D+R260K: codeine 3-O-demethylase with amino acid substitutions E259D and R260K (protein, listed as Papaver somniferum)", "chain": "METPILIKLGNGLSIPSVQELAKLTLAEIPSRYTCTGESPLNNIGASVTDDETVPVIDLQNLLSPEPVVGKLELDKLHSACKEWGFFQLVNHGVDALLMDNIKSEIKGFFNLPMNEKTKYGQQDGDFEGFGQPYIESEDQRLDWTEVFSMLSLPLHLRKPHLFPELPLPFRETLESYLSKMKKLSTVVFEMLEKSLQLVEIKGMTDLFEDGLQTMRMNYYPPCPRPELVLGLTSHSDFSGLTILLQLNEVEGLQIRKEDKWISIKPLPDAFIVNVGDILEIMTNGIYRSVEHRAVVNSTKERLSIATFHDSKLESEIGPISSLVTPETPALFKRGRYEDILKENLSRKLDGKSFLDYMRM"}, "B8": {"name": "E259G+R260K: codeine 3-O-demethylase with amino acid substitutions E259G and R260K (protein, listed as Papaver somniferum)", "chain": "METPILIKLGNGLSIPSVQELAKLTLAEIPSRYTCTGESPLNNIGASVTDDETVPVIDLQNLLSPEPVVGKLELDKLHSACKEWGFFQLVNHGVDALLMDNIKSEIKGFFNLPMNEKTKYGQQDGDFEGFGQPYIESEDQRLDWTEVFSMLSLPLHLRKPHLFPELPLPFRETLESYLSKMKKLSTVVFEMLEKSLQLVEIKGMTDLFEDGLQTMRMNYYPPCPRPELVLGLTSHSDFSGLTILLQLNEVEGLQIRKEGKWISIKPLPDAFIVNVGDILEIMTNGIYRSVEHRAVVNSTKERLSIATFHDSKLESEIGPISSLVTPETPALFKRGRYEDILKENLSRKLDGKSFLDYMRM"}, "B9": {"name": "M360I: codeine 3-O-demethylase with amino acid substitution M360I (protein, listed as Papaver somniferum)", "chain": "METPILIKLGNGLSIPSVQELAKLTLAEIPSRYTCTGESPLNNIGASVTDDETVPVIDLQNLLSPEPVVGKLELDKLHSACKEWGFFQLVNHGVDALLMDNIKSEIKGFFNLPMNEKTKYGQQDGDFEGFGQPYIESEDQRLDWTEVFSMLSLPLHLRKPHLFPELPLPFRETLESYLSKMKKLSTVVFEMLEKSLQLVEIKGMTDLFEDGLQTMRMNYYPPCPRPELVLGLTSHSDFSGLTILLQLNEVEGLQIRKEERWISIKPLPDAFIVNVGDILEIMTNGIYRSVEHRAVVNSTKERLSIATFHDSKLESEIGPISSLVTPETPALFKRGRYEDILKENLSRKLDGKSFLDYMRI"}, "B10": {"name": "E259D: codeine 3-O-demethylase with amino acid substitution E259D (protein, listed as Papaver somniferum)", "chain": "METPILIKLGNGLSIPSVQELAKLTLAEIPSRYTCTGESPLNNIGASVTDDETVPVIDLQNLLSPEPVVGKLELDKLHSACKEWGFFQLVNHGVDALLMDNIKSEIKGFFNLPMNEKTKYGQQDGDFEGFGQPYIESEDQRLDWTEVFSMLSLPLHLRKPHLFPELPLPFRETLESYLSKMKKLSTVVFEMLEKSLQLVEIKGMTDLFEDGLQTMRMNYYPPCPRPELVLGLTSHSDFSGLTILLQLNEVEGLQIRKEDRWISIKPLPDAFIVNVGDILEIMTNGIYRSVEHRAVVNSTKERLSIATFHDSKLESEIGPISSLVTPETPALFKRGRYEDILKENLSRKLDGKSFLDYMRM"}, "B11": {"name": "E259G: codeine 3-O-demethylase with amino acid substitution E259G (protein, listed as Papaver somniferum)", "chain": "METPILIKLGNGLSIPSVQELAKLTLAEIPSRYTCTGESPLNNIGASVTDDETVPVIDLQNLLSPEPVVGKLELDKLHSACKEWGFFQLVNHGVDALLMDNIKSEIKGFFNLPMNEKTKYGQQDGDFEGFGQPYIESEDQRLDWTEVFSMLSLPLHLRKPHLFPELPLPFRETLESYLSKMKKLSTVVFEMLEKSLQLVEIKGMTDLFEDGLQTMRMNYYPPCPRPELVLGLTSHSDFSGLTILLQLNEVEGLQIRKEGRWISIKPLPDAFIVNVGDILEIMTNGIYRSVEHRAVVNSTKERLSIATFHDSKLESEIGPISSLVTPETPALFKRGRYEDILKENLSRKLDGKSFLDYMRM"}, "B12": {"name": "15K: codeine 3-O-demethylase with amino acid substitution I5K (protein, listed as Papaver somniferum)", "chain": "METPKLIKLGNGLSIPSVQELAKLTLAEIPSRYTCTGESPLNNIGASVTDDETVPVIDLQNLLSPEPVVGKLELDKLHSACKEWGFFQLVNHGVDALLMDNIKSEIKGFFNLPMNEKTKYGQQDGDFEGFGQPYIESEDQRLDWTEVFSMLSLPLHLRKPHLFPELPLPFRETLESYLSKMKKLSTVVFEMLEKSLQLVEIKGMTDLFEDGLQTMRMNYYPPCPRPELVLGLTSHSDFSGLTILLQLNEVEGLQIRKEERWISIKPLPDAFIVNVGDILEIMTNGIYRSVEHRAVVNSTKERLSIATFHDSKLESEIGPISSLVTPETPALFKRGRYEDILKENLSRKLDGKSFLDYMRM"}}}
{"assay": "Soluble protein expression by SDS-PAGE densiometric analysis", "design": "species or system E. coli", "conditions": "not given", "units": {"less soluble protein expressed than WT CODM": "%"}}
{"molecule": "B1", "level of soluble protein expression compared to WT CODM (in words)": "reduction in the expression of soluble protein"}
{"molecule": "B2", "level of soluble protein expression compared to WT CODM (in words)": "reduction in the expression of soluble protein"}
{"molecule": "B3", "level of soluble protein expression compared to WT CODM (in words)": "reduction in the expression of soluble protein"}
{"molecule": "B4", "level of soluble protein expression compared to WT CODM (in words)": "reduction in the expression of soluble protein"}
{"molecule": "B5", "level of soluble protein expression compared to WT CODM (in words)": "reduction in the expression of soluble protein"}
{"molecule": "B6", "less soluble protein expressed than WT CODM": "~63"}
{"molecule": "B7", "level of soluble protein expression compared to WT CODM (in words)": "comparable to the E259D and E259G single mutant strains"}
{"molecule": "B8", "level of soluble protein expression compared to WT CODM (in words)": "comparable to the E259D and E259G single mutant strains"}
{"molecule": "B9", "level of soluble protein expression compared to WT CODM (in words)": "only small changes in protein expression"}
{"assay": "Soluble protein expression by SDS-PAGE densiometric analysis", "design": "species or system E. coli", "conditions": "fold of WT CODM", "units": {"soluble protein expressed compared to WT CODM": "×"}}
{"molecule": "B10", "soluble protein expressed compared to WT CODM": "~2.1"}
{"molecule": "B11", "soluble protein expressed compared to WT CODM": "~1.5"}
{"molecule": "B12", "soluble protein expressed compared to WT CODM": "~2.9"}
